Test results from US20250152742A1, “COMPOSITIONS AND METHODS FOR NEUROLOGICAL DISEASES” (Trames Bio, Inc., priority 2022, published 2025).

Tested on: HEK293T cells
Assay type: cell-based
Settings: flow cytometry; for Normalized HA %: % HA-tag positive cells normalized to SEQ ID NO: 33 control; for Normalized HA MFI: anti-HA fluorescence intensity normalized to SEQ ID NO: 33 control

| Molecule | Normalized HA % | Normalized HA MFI |
| --- | --- | --- |
| CODA807: engineered receptor: Y115D, L131E in SEQ ID NO: 33 (protein, synthetic sequence of chimeric LGIC) MRCSPGGVWLALAASLLHVSLQGEFQRKLYKELVKNYNPLERPVANDSQPLTVYFSLSLLQIMDVDEKNQVLTTNIWLQMSWTDHYLQWNVSEYPGVKTVRFPDGQIWKPDILLDNSADERFDATFHTNVEVNSSGHCQYLPPGIFKSSCPMDLKNFPMDVQTCKLKFGSWSYGGWSLDLQMQEADISGYIPNGEWDLVGIPGKRSERFYECCKEPYPDVTFTVTMRRRMGYYLIQMYIPSLLIVILSWISFWINMDAAPARVGLGITTVLTMTTQSSGSRASLPKVSYVKAIDIWMAVCLLFVFSALLEYAAVNFVSRQHKELLRFRRKRRHHKSPMLNLFQEDEAGEGRFNFSAYGMGPACLQAKDGISVKGANNSNTTNPPPAPSKSPEEMRKLFIQRAKKIDKISRIGFPMAFLIFNMFYWIIYKIVRREDVHNQ | 0.91 | 1.00 |
| CODA952: engineered receptor: Y140I in SEQ ID NO: 33 (protein, synthetic sequence of chimeric LGIC) MRCSPGGVWLALAASLLHVSLQGEFQRKLYKELVKNYNPLERPVANDSQPLTVYFSLSLLQIMDVDEKNQVLTTNIWLQMSWTDHYLQWNVSEYPGVKTVRFPDGQIWKPDILLYNSADERFDATFHTNVLVNSSGHCQILPPGIFKSSCPMDLKNFPMDVQTCKLKFGSWSYGGWSLDLQMQEADISGYIPNGEWDLVGIPGKRSERFYECCKEPYPDVTFTVTMRRRMGYYLIQMYIPSLLIVILSWISFWINMDAAPARVGLGITTVLTMTTQSSGSRASLPKVSYVKAIDIWMAVCLLFVFSALLEYAAVNFVSRQHKELLRFRRKRRHHKSPMLNLFQEDEAGEGRFNFSAYGMGPACLQAKDGISVKGANNSNTTNPPPAPSKSPEEMRKLFIQRAKKIDKISRIGFPMAFLIFNMFYWIIYKIVRREDVHNQ | 1.41 | 1.53 |
| CODA1025: engineered receptor: R101F, L131G in SEQ ID NO: 33 (protein, synthetic sequence of chimeric LGIC) MRCSPGGVWLALAASLLHVSLQGEFQRKLYKELVKNYNPLERPVANDSQPLTVYFSLSLLQIMDVDEKNQVLTTNIWLQMSWTDHYLQWNVSEYPGVKTVFFPDGQIWKPDILLYNSADERFDATFHTNVGVNSSGHCQYLPPGIFKSSCPMDLKNFPMDVQTCKLKFGSWSYGGWSLDLQMQEADISGYIPNGEWDLVGIPGKRSERFYECCKEPYPDVTFTVTMRRRMGYYLIQMYIPSLLIVILSWISFWINMDAAPARVGLGITTVLTMTTQSSGSRASLPKVSYVKAIDIWMAVCLLFVFSALLEYAAVNFVSRQHKELLRFRRKRRHHKSPMLNLFQEDEAGEGRFNFSAYGMGPACLQAKDGISVKGANNSNTTNPPPAPSKSPEEMRKLFIQRAKKIDKISRIGFPMAFLIFNMFYWIIYKIVRREDVHNQ | 0.98 | 0.63 |
| CODA1027: engineered receptor: R101F, L131D in SEQ ID NO: 33 (protein, synthetic sequence of chimeric LGIC) MRCSPGGVWLALAASLLHVSLQGEFQRKLYKELVKNYNPLERPVANDSQPLTVYFSLSLLQIMDVDEKNQVLTTNIWLQMSWTDHYLQWNVSEYPGVKTVFFPDGQIWKPDILLYNSADERFDATFHTNVDVNSSGHCQYLPPGIFKSSCPMDLKNFPMDVQTCKLKFGSWSYGGWSLDLQMQEADISGYIPNGEWDLVGIPGKRSERFYECCKEPYPDVTFTVTMRRRMGYYLIQMYIPSLLIVILSWISFWINMDAAPARVGLGITTVLTMTTQSSGSRASLPKVSYVKAIDIWMAVCLLFVFSALLEYAAVNFVSRQHKELLRFRRKRRHHKSPMLNLFQEDEAGEGRFNFSAYGMGPACLQAKDGISVKGANNSNTTNPPPAPSKSPEEMRKLFIQRAKKIDKISRIGFPMAFLIFNMFYWIIYKIVRREDVHNQ | 0.61 | 0.49 |
| CODA1045: engineered receptor: R101W, Y210V in SEQ ID NO: 33 (protein, synthetic sequence of chimeric LGIC) MRCSPGGVWLALAASLLHVSLQGEFQRKLYKELVKNYNPLERPVANDSQPLTVYFSLSLLQIMDVDEKNQVLTTNIWLQMSWTDHYLQWNVSEYPGVKTVWFPDGQIWKPDILLYNSADERFDATFHTNVLVNSSGHCQYLPPGIFKSSCPMDLKNFPMDVQTCKLKFGSWSYGGWSLDLQMQEADISGYIPNGEWDLVGIPGKRSERFVECCKEPYPDVTFTVTMRRRMGYYLIQMYIPSLLIVILSWISFWINMDAAPARVGLGITTVLTMTTQSSGSRASLPKVSYVKAIDIWMAVCLLFVFSALLEYAAVNFVSRQHKELLRFRRKRRHHKSPMLNLFQEDEAGEGRFNFSAYGMGPACLQAKDGISVKGANNSNTTNPPPAPSKSPEEMRKLFIQRAKKIDKISRIGFPMAFLIFNMFYWIIYKIVRREDVHNQ | 1.09 | 0.87 |
| CODA1047: engineered receptor: R101F, Y210V in SEQ ID NO: 33 (protein, synthetic sequence of chimeric LGIC) MRCSPGGVWLALAASLLHVSLQGEFQRKLYKELVKNYNPLERPVANDSQPLTVYFSLSLLQIMDVDEKNQVLTTNIWLQMSWTDHYLQWNVSEYPGVKTVFFPDGQIWKPDILLYNSADERFDATFHTNVLVNSSGHCQYLPPGIFKSSCPMDLKNFPMDVQTCKLKFGSWSYGGWSLDLQMQEADISGYIPNGEWDLVGIPGKRSERFVECCKEPYPDVTFTVTMRRRMGYYLIQMYIPSLLIVILSWISFWINMDAAPARVGLGITTVLTMTTQSSGSRASLPKVSYVKAIDIWMAVCLLFVFSALLEYAAVNFVSRQHKELLRFRRKRRHHKSPMLNLFQEDEAGEGRFNFSAYGMGPACLQAKDGISVKGANNSNTTNPPPAPSKSPEEMRKLFIQRAKKIDKISRIGFPMAFLIFNMFYWIIYKIVRREDVHNQ | 1.13 | 0.65 |
| CODA1048: engineered receptor: R101F, Y210F in SEQ ID NO: 33 (protein, synthetic sequence of chimeric LGIC) MRCSPGGVWLALAASLLHVSLQGEFQRKLYKELVKNYNPLERPVANDSQPLTVYFSLSLLQIMDVDEKNQVLTTNIWLQMSWTDHYLQWNVSEYPGVKTVFFPDGQIWKPDILLYNSADERFDATFHTNVLVNSSGHCQYLPPGIFKSSCPMDLKNFPMDVQTCKLKFGSWSYGGWSLDLQMQEADISGYIPNGEWDLVGIPGKRSERFFECCKEPYPDVTFTVTMRRRMGYYLIQMYIPSLLIVILSWISFWINMDAAPARVGLGITTVLTMTTQSSGSRASLPKVSYVKAIDIWMAVCLLFVFSALLEYAAVNFVSRQHKELLRFRRKRRHHKSPMLNLFQEDEAGEGRFNFSAYGMGPACLQAKDGISVKGANNSNTTNPPPAPSKSPEEMRKLFIQRAKKIDKISRIGFPMAFLIFNMFYWIIYKIVRREDVHNQ | 1.05 | 0.61 |
